Experimental findings from US7297505B2, “Use of MDCK cell line to predict corneal penetration of drugs” (Alcon, Inc., priority 2004, dated 2007) are described below.

In this series the test system is MDCK(MDR) monolayers. As to conditions: MDCK-MDR1. An excerpt: The present invention is directed to the use of a new in vitro model for evaluating the ability of a drug molecule to penetrate the cornea. The model involves the use of MDCK cell permeability values to predict the ability of drug molecules to penetrate the cornea. The MDCK permeability values of drug molecules can be determined by means of known methods, such as the methods described in the following scientific articles: • 1. Horio, M, Pastan, I, Gottesman, M M, and Handler, J S. Transepithelial transport of vinblastine by kidney-derived cell lines. Application of a new kinetic model to estimate in situ Km of the pump. […] Pan, B F, Dutt, A, and Nelson, J A. Enhanced transepithelial flux of cimetidine by Madin-Darby canine kidney cells overexpressing human P-glycoprotein. […]
In vitro MDCK cell permeability. Permeability and transport studies were conducted and the data were analyzed at Absorption Systems, Exton, Pa., using methods previously described.^12,13 MDCK(MDR) monolayers were grown to confluence on collagen-coated, microporous, polycarbonate membranes in 12-well Costar Transwell plates. To ensure monolayer integrity, the trans epithelial electrical resistance (TEER) was measured. […] Lucifer Yellow permeability was measured for each monolayer after the experiment, to ensure that the cell monolayer integrity and viability was not compromised by the test article. […]

Structures are written as SMILES.

As for `CC(C)NCC(O)COc1ccc(CC(N)=O)cc1` (stereo not shown) [Atenolol], the “MDCK^2” value worked out at 1.96.
